According to publication PMC9410764, “EmCyclinD-EmCDK4/6 complex is involved in the host EGF-mediated proliferation of Echinococcus multilocularis germinative cells via the EGFR-ERK pathway” (Frontiers in Microbiology, 2022):
Results are given in words; binding and its absence hold for the method and conditions named. Binding seen in cells or lysates may run through a third protein.

Amino acid sequences for entries named in this document (tags omitted).
UniProt A0A068Y4X2: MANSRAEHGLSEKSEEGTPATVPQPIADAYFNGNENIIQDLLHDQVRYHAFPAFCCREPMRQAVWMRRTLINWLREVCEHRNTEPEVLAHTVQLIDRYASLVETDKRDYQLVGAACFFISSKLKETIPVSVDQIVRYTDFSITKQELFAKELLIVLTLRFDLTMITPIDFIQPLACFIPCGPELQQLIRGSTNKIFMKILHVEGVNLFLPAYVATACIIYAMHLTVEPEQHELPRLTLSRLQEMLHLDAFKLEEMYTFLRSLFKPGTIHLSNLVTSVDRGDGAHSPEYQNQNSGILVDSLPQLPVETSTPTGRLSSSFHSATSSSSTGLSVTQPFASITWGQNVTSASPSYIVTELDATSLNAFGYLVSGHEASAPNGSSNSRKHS

Target: T1, EmCDK2 (Echinococcus multilocularis CDK2 homolog, locus EmuJ_000258800) (Echinococcus multilocularis)
T1 sequence: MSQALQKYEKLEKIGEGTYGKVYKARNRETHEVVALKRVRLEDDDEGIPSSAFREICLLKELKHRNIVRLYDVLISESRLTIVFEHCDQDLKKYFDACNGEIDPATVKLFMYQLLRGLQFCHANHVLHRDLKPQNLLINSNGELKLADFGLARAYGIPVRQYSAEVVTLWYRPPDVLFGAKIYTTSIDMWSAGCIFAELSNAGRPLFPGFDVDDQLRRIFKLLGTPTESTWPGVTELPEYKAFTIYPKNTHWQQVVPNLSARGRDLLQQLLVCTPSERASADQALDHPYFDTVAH
Assay: co-IP; expression plasmids co-transfected into HEK-293T cells; lysates harvested 36 h after transfection in RIPA lysis buffer; anti-Myc or anti-HA antibody conjugated Sepharose beads; blot with anti-Myc and anti-HA

EmCyclinD (Echinococcus multilocularis cyclin D homolog, locus EmuJ_000456500), Myc-tagged (from UniProt A0A068Y4X2 1-386)
binding: no binding
